From publication PMC6953191, “OsNAC2 integrates auxin and cytokinin pathways to modulate rice root development” come the findings set out here.

Assay [1] addresses OsRR4 (pGBKT7-OsRR, bait) (rice (Oryza sativa)). As to the kind of experiment: two-hybrid; OsRRs as bait (pGBKT7), OsNAC2 as prey (pGADT7); yeast strain AH109; SD/-His/-Trp/-Leu/-Ade plate.
For assay [2], the target named is OsRR6 (pGBKT7-OsRR, bait) (rice (Oryza sativa)). The description is as above.

No constants are given. Whether binding was seen depends on the method and setting.

B1: OsNAC2 (pGADT7-OsNAC2, prey) (protein, UniProt Q7XUV6 1-343)
chain: MEQHQGQAGMDLPPGFRFHPTDEELITHYLAKKVADARFAALAVAEADLNKCEPWDLPSLAKMGEKEWYFFCLKDRKYPTGLRTNRATESGYWKATGKDKDIFRRKALVGMKKTLVFYTGRAPKGEKSGWVMHEYRLHGKLHAAALGFLHGKPASSKNEWVLCRVFKKSLVEVGAAGGKKAAVVTMEMARGGSTSSSVADEIAMSSVVLPPLMDMSGAGAGAVDPATTAHVTCFSNALEGQFFNPTAVHGHGGGDSSPFMASFTQYGQLHHGVSLVQLLESCNGYGGLVDMAASGSQLQPAACGGERERLSASQDTGLTSDVNPEISSSSGQKFDHEAALWGY
As to B1, the binding entry in assay [1] and in assay [2] was “no binding” throughout.
